System: dechlorinating bacteria known to convert PCE to ethene
Test: Set D: Efficiency by COD Analysis
Format: cell-based, Dehalococcoides and Dehalobacter spp.
From the text: Efficiency may be defined as the percent of electron donor utilized for dechlorination, and may be calculated by dividing the pmoles of Chloride ion generated by the pmoles of electron donor consumed as measured by either Volatile Fatty Acid (VFA) analysis (Sets B, C, and G) or Chemical Oxygen Demand (COD) analysis (Set D and E). The Relative Efficiency of the electron donor utilization may be defined as the Efficiency of the Electron Donor divided by the Efficiency of the Lactate Control.
The COD analysis calculates the utilization of electron donor by measuring the starting COD and the final COD taking the difference and converting mg/L to pmoles of electrons. The pmoles of electrons used for dechlorination was determined from the calculated Chloride produced leading to an Efficiency and Relative Efficiency of electron donor utilization as compared to lactate.

Q: Which results are given for CC(O)C(=O)[O-].[Na+] (stereo not drawn) [Lactate Control, sodium lactate]?
A: Final COD: 777 mg/L; ΔCOD μmoles e^-: 2283 μmoles e^-; μmoles e^− dechlor.: 131 μmoles e^−
